Measurements reported in PubChem BioAssay AID504764 (Drosophila RNAi Screening Center, 2011)

- Screen: 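Genes whose knock-down alters Notch-dependent transcription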 (primary screen)
- Cell system: Drosophila Kc167 cells
- Reagents: long dsRNA against Drosophila genes
- Time to read-out: about 5 days (4 days dsRNA, then 24 h after transfection)
- Treatment: transfection of constitutively active membrane-tethered Notch lacking the extracellular domain, read 24 h later
- Measurement: 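Firefly luciferase from an E(spl)m3 reporter with active Notch, plus control-promoter and uninduced reporter wells for normalisation; unnormalised counts, duplicate wells a and b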
- Scale: induced reporter light, run 1, well a and induced reporter light, run 1, well b: higher = more light from the Notch target reporter with active Notch; control promoter light, run 1, well a and control promoter light, run 1, well b: higher = more light from the viral control promoter (cell number, transfection, viability); uninduced reporter light, run 1, well a: higher = more light from the Notch target reporter without active Notch
- Hit rule: 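Hit if the duplicate-averaged log2 ratio of induced to control-promoter light gives a plate-wise z beyond ±2, or induced to uninduced beyond ±1.8; weak-control or discordant-duplicate wells dropped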
- Meaning of the calls: active = modifier hit (raised or lowered Notch signal); inactive = not a hit
In all, the deposit lists about 22,000 reagents; shown is a random part of those with a known target gene and a result. In the full data, 403 (1.9%) got an active call. 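Unnormalised raw counts per well; ratio z-scores behind the hit calls and whether each hit raises or lowers signal are not deposited.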 The record does not give: the amount of reagent.

Which result is listed for CG11414 [DRSC04110]?
induced reporter light, run 1, well a: 2.17e5; induced reporter light, run 1, well b: 1.77e5; control promoter light, run 1, well a: 1.92e5; control promoter light, run 1, well b: 2.35e5; uninduced reporter light, run 1, well a: 15375; outcome: inactive

With prd1 (pruning defect 1) [DRSC15227], how do the results read?
induced reporter light, run 1, well a: 8942; induced reporter light, run 1, well b: 7270; control promoter light, run 1, well a: 12105; control promoter light, run 1, well b: 9855; uninduced reporter light, run 1, well a: 810; outcome: inactive

What did the screen give for tsl (torso-like) [DRSC17090]?
induced reporter light, run 1, well a: 2.09e5; induced reporter light, run 1, well b: 1.82e5; control promoter light, run 1, well a: 1.83e5; control promoter light, run 1, well b: 1.96e5; uninduced reporter light, run 1, well a: 13400; outcome: inactive

What did the screen give for IFT57 (Intraflagellar transport 57) [DRSC00720]?
induced reporter light, run 1, well a: 1.77e5; induced reporter light, run 1, well b: 1.57e5; control promoter light, run 1, well a: 1.95e5; control promoter light, run 1, well b: 1.60e5; uninduced reporter light, run 1, well a: 13240; outcome: inactive

Which result is listed for CG7220 [DRSC05235]?
induced reporter light, run 1, well a: 1.99e5; induced reporter light, run 1, well b: 2.24e5; control promoter light, run 1, well a: 3.10e5; control promoter light, run 1, well b: 3.35e5; uninduced reporter light, run 1, well a: 22390; outcome: inactive

For CG7220 [DRSC07018], what was measured?
induced reporter light, run 1, well a: 1.94e5; induced reporter light, run 1, well b: 1.66e5; control promoter light, run 1, well a: 1.85e5; control promoter light, run 1, well b: 2.01e5; uninduced reporter light, run 1, well a: 16350; outcome: inactive

For CG8785 [DRSC07266], how do the results read?
induced reporter light, run 1, well a: 1.69e5; induced reporter light, run 1, well b: 1.80e5; control promoter light, run 1, well a: 1.51e5; control promoter light, run 1, well b: 1.54e5; uninduced reporter light, run 1, well a: 12982; outcome: inactive

How did the screen score Fum2 (Fumarase 2) [DRSC18345]?
induced reporter light, run 1, well a: 1.10e5; induced reporter light, run 1, well b: 1.08e5; control promoter light, run 1, well a: 1.47e5; control promoter light, run 1, well b: 1.88e5; uninduced reporter light, run 1, well a: 6990; outcome: inactive

With mxc (multi sex combs) [DRSC17819], what does the deposit list?
induced reporter light, run 1, well a: 52090; induced reporter light, run 1, well b: 50600; control promoter light, run 1, well a: 1.00e5; control promoter light, run 1, well b: 1.05e5; uninduced reporter light, run 1, well a: 5185; outcome: inactive

For CG6659 [DRSC20003], what does the deposit list?
induced reporter light, run 1, well a: 1.26e5; induced reporter light, run 1, well b: 97125; control promoter light, run 1, well a: 85365; control promoter light, run 1, well b: 64070; uninduced reporter light, run 1, well a: 7370; outcome: inactive

What is on record for Adck1 (aarF domain containing kinase 1) [DRSC04394]?
induced reporter light, run 1, well a: 1.55e5; induced reporter light, run 1, well b: 1.63e5; control promoter light, run 1, well a: 1.62e5; control promoter light, run 1, well b: 1.53e5; uninduced reporter light, run 1, well a: 14478; outcome: inactive

With Pburs (Partner of Bursicon) [DRSC02483], what was measured?
induced reporter light, run 1, well a: 1.35e5; induced reporter light, run 1, well b: 1.28e5; control promoter light, run 1, well a: 93405; control promoter light, run 1, well b: 1.33e5; uninduced reporter light, run 1, well a: 11490; outcome: inactive

Laid out differently: 2 of the entries above.
{"predicted target":"Fum2 (Fumarase 2)","DRSC id":"DRSC18345","induced reporter light, run 1, well a":1.10e5,"induced reporter light, run 1, well b":1.08e5,"control promoter light, run 1, well a":1.47e5,"control promoter light, run 1, well b":1.88e5,"uninduced reporter light, run 1, well a":6990,"outcome":"inactive"}
{"predicted target":"mxc (multi sex combs)","DRSC id":"DRSC17819","induced reporter light, run 1, well a":52090,"induced reporter light, run 1, well b":50600,"control promoter light, run 1, well a":1.00e5,"control promoter light, run 1, well b":1.05e5,"uninduced reporter light, run 1, well a":5185,"outcome":"inactive"}
